Measured values published in patent publication US20180280305A1 (Bayer HealthCare LLC, priority 2015, published 2018).

Legend:
[1] = 317 mg of naproxen sodium
[2] = cited from earlier work

In the case of COc1ccc2cc([C@H](C)C(=O)O)ccc2c1 [naproxen sodium], the “expected plasma level from linear pharmacokinetics” value [1] is reported as 43 µg/mL.
For COc1ccc2cc(C(C)C(=O)O)ccc2c1 (centres unmarked) [naproxen, 2-(6-methoxynaphthalen-2-yl) propanoic acid], the “dose up to which AUC for single doses is reasonably linear” value [2] is listed as “up to 500 mg”.
